In publication PMC7615239 one finds binding data, which are given here for three molecules.

Protein sequences, listed by entry. Tags and fused reporters are not part of them.
UniProt Q9FIE3: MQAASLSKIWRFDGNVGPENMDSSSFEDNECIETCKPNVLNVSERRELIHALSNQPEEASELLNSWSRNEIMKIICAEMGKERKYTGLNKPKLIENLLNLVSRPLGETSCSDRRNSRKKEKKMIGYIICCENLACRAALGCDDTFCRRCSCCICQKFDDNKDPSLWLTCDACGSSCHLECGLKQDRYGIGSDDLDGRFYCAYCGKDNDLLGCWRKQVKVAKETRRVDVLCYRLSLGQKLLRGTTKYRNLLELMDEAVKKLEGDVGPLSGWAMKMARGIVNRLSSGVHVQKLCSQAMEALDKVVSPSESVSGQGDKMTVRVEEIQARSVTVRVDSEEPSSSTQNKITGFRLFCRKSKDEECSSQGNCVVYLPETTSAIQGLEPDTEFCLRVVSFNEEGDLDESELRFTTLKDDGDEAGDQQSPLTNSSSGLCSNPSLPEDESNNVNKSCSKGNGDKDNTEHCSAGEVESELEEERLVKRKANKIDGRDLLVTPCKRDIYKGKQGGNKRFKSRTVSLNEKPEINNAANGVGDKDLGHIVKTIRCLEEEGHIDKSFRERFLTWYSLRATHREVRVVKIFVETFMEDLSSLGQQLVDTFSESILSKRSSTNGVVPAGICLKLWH
UniProt O22467: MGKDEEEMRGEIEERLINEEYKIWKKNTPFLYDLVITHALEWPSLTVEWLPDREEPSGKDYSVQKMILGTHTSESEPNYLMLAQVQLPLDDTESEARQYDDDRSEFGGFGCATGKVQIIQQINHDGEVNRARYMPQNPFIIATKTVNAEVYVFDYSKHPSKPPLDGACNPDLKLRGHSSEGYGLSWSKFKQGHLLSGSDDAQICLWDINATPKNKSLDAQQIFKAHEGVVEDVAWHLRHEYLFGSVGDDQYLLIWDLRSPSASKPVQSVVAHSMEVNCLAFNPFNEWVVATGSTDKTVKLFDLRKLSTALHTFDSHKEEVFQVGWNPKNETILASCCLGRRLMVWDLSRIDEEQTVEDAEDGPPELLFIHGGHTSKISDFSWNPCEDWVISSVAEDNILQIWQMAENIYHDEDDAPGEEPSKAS

These are yes or no findings as the source states them, for the method shown. In cells and extracts the contact can be indirect. Some results given as binding are weak or reduced against the parent protein; the word gives no strength. Where a sequence is shown, tags or fusion partners need not be part of it.

One test deals with T1, GFP-VAL1 (Arabidopsis) (UniProt Q8W4L5).
T1 sequence: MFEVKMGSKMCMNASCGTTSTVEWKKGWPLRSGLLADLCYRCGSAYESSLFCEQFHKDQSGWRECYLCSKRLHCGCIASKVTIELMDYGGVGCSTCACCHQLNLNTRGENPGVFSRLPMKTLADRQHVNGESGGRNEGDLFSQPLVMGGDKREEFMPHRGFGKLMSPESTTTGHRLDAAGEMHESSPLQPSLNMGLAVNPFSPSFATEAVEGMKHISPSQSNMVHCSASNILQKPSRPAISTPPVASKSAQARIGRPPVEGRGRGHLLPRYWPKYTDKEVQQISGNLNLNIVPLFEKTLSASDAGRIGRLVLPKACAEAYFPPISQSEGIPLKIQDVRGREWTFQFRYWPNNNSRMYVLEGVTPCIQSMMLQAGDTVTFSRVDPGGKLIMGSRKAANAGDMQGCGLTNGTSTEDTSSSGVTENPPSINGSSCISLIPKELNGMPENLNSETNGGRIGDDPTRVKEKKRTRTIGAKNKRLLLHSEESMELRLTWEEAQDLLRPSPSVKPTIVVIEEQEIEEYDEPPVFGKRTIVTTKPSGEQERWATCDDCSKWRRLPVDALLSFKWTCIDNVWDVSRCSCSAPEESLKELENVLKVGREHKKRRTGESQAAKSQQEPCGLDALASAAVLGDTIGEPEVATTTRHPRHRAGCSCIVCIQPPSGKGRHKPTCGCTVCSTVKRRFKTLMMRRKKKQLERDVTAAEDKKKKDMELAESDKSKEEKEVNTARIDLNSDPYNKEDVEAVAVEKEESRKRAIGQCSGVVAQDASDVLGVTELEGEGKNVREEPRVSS
The test can be described thus: co-IP; GFP-VAL1 (wt or internal deletions) coexpressed with FLAG-dsRed-tagged VEL proteins (wt or mutant) in HEK293T; GFP-trap; anti-FLAG blot.

Test [1] deals with T2, GFP-tagged VRN2 (Arabidopsis) (UniProt Q8W5B1).
T2 sequence: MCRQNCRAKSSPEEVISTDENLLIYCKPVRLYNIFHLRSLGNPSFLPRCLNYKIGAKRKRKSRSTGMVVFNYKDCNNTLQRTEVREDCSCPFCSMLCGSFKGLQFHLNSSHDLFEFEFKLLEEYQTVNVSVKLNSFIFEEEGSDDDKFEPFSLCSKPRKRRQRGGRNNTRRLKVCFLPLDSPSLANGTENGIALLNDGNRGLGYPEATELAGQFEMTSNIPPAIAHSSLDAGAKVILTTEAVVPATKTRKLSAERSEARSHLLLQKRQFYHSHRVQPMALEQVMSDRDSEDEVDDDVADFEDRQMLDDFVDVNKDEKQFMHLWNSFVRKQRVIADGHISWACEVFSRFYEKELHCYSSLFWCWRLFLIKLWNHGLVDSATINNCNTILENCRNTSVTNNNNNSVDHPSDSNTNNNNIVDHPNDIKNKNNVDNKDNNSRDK
Briefly: co-IP; GFP-tagged VRN2 coexpressed with SWN, MSI1 and FIE, without or with VRN5, in HEK293T (Supplemental Fig. S1F,G).

Test [2] deals with T3, GFP-VRN5 (Arabidopsis thaliana) (UniProt Q9LHF5).
T3 sequence: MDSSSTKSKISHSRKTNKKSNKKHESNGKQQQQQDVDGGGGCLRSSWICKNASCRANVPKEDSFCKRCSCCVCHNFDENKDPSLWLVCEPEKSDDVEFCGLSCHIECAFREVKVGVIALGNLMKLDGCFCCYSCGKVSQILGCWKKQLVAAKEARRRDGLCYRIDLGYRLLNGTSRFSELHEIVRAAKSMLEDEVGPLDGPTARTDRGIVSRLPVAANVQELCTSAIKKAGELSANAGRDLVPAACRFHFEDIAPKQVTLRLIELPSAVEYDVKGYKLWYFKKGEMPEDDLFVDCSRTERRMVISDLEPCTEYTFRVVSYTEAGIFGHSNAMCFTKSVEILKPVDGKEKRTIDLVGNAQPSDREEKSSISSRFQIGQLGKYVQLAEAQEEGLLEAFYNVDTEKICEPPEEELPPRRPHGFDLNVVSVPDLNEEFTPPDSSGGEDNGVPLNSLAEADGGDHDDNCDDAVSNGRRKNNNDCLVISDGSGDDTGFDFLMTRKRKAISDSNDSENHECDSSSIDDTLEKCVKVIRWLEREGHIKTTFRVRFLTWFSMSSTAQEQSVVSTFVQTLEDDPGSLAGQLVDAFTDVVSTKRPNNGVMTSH
Briefly: co-IP; GFP-VRN5 coexpressed with the HA-tagged catalytic or regulatory module of PRC2 (VRN2 split into N-lobe and C-lobe) in HEK293T; GFP-trap; anti-HA blot.

Test [3] has as its target T4, GFP-VEL1 (Arabidopsis thaliana) (UniProt Q9SUM4).
T4 sequence: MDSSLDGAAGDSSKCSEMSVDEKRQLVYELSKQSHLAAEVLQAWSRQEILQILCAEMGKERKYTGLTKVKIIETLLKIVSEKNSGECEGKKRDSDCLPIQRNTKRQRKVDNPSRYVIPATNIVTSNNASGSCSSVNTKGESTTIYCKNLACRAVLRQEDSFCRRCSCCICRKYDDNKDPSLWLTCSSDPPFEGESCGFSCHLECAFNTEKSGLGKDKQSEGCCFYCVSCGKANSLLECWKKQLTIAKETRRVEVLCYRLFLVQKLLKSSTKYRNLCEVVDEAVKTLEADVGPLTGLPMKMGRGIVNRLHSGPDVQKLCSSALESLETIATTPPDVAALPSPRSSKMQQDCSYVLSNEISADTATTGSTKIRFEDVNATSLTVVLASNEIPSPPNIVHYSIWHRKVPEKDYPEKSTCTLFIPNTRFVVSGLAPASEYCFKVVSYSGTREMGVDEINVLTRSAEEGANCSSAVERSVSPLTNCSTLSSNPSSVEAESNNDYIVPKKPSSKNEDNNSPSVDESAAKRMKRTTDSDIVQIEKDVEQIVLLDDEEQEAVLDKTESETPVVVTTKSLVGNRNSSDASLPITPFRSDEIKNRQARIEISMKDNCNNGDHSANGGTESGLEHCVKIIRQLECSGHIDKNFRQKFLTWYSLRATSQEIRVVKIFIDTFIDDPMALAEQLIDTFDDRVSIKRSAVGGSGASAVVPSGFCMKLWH
Briefly: co-IP; GFP-tagged VEL protein (wt, mutant or chimera) coexpressed with all four HA-tagged PRC2 subunits (VRN2, SWN, FIE, MSI1) in HEK293T; GFP-trap 90 min at 4°C; lysis buffer 20 mM Tris pH 7.4, 200 mM NaCl, 10% glycerol, 0.2% Triton X-100; anti-HA blot.

Test [4] deals with T3, GFP-VRN5 (Arabidopsis thaliana). The description is as above.
Test [5] addresses VIN3-GFP (Arabidopsis thaliana) (UniProt Q9FIE3). The test is described as above.
The target of test [6] is T3, GFP-VRN5 (Arabidopsis thaliana). Briefly: co-IP; GFP-VRN5 coexpressed with all but one of the four HA-tagged PRC2 subunits in HEK293T; GFP-trap; anti-HA blot.

Turning to “FLAG-dsRed-VIN3 (from UniProt Q9FIE3 1-620)”, the binding result in the test with GFP-VAL1 (Arabidopsis) is “binds”.
For the molecule “HA-tagged MSI1 (from UniProt O22467 1-424)”, the binding entry is given as “binds” in test [1]; “binds” in test [2]; “binds” in test [3]; “binds” in test [4]; “binds weakly” in test [5].

B1: HA-tagged SWN (protein, UniProt Q9ZSM8 1-856)
chain: MVTDDSNSSGRIKSHVDDDDDGEEEEDRLEGLENRLSELKRKIQGERVRSIKEKFEANRKKVDAHVSPFSSAASSRATAEDNGNSNMLSSRMRMPLCKLNGFSHGVGDRDYVPTKDVISASVKLPIAERIPPYTTWIFLDRNQRMAEDQSVVGRRQIYYEQHGGETLICSDSEEEPEPEEEKREFSEGEDSIIWLIGQEYGMGEEVQDALCQLLSVDASDILERYNELKLKDKQNTEEFSNSGFKLGISLEKGLGAALDSFDNLFCRRCLVFDCRLHGCSQPLISASEKQPYWSDYEGDRKPCSKHCYLQLKAVREVPETCSNFASKAEEKASEEECSKAVSSDVPHAAASGVSLQVEKTDIGIKNVDSSSGVEQEHGIRGKREVPILKDSNDLPNLSNKKQKTAASDTKMSFVNSVPSLDQALDSTKGDQGGTTDNKVNRDSEADAKEVGEPIPDNSVHDGGSSICQPHHGSGNGAIIIAEMSETSRPSTEWNPIEKDLYLKGVEIFGRNSCLIARNLLSGLKTCLDVSNYMRENEVSVFRRSSTPNLLLDDGRTDPGNDNDEVPPRTRLFRRKGKTRKLKYSTKSAGHPSVWKRIAGGKNQSCKQYTPCGCLSMCGKDCPCLTNETCCEKYCGCSKSCKNRFRGCHCAKSQCRSRQCPCFAAGRECDPDVCRNCWVSCGDGSLGEAPRRGEGQCGNMRLLLRQQQRILLGKSDVAGWGAFLKNSVSKNEYLGEYTGELISHHEADKRGKIYDRANSSFLFDLNDQYVLDAQRKGDKLKFANHSAKPNCYAKVMFVAGDHRVGIFANERIEASEELFYDYRYGPDQAPVWARKPEGSKKDDSAITHRRARKHQSH
In the case of B1, the binding entry in test [6] was “binds”; in test [1], “binds”; in test [3], “binds weakly”; in test [4] it was “binds”; in test [5], “binds weakly”.
